The results are deposited in PubChem (AID1159506; NCATS, 2015).

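Genome-wide siRNA knockdown in TC32 Ewing sarcoma cells, comparing luciferase light from an NR0B1-promoter reporter with a CMV-promoter reporter 48 hours after transfection. Each siRNA was applied at 20 nM. A z-score of the log NR0B1-over-CMV signal, less the median of siRNAs with the same seed; more negative means a stronger specific loss of the NR0B1 reporter.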

The strongest results of the screen are mostly left out here. Sequences are the guide (antisense) strand, without overhang.

Sequence,target gene,seed-corrected z-score
UCGCGUUGAUCCUUGAGCG,CCDC107,0.6092
UUCGAGACCGUUUCAUCUC,ARHGEF11,0.3833
UGAUUGAACUGGAUAUGUC,STAM2,-0.341
UUACUGUAGACAGGGUUGC,SMAP1,0.9451
UUCCGUACCUUUUUGUCCC,CFAP20,-0.01171
UAUGCGAAGAGCUAGUCCC,PTGER3,-0.6825
UUAAAGCAAAGGAUAUCUG,VN1R5,-0.8081
AAAGGUUUCUCUCUCGUGU,ZNF146,-0.1312
AUUCAAUCCAGCAUAAACC,RRH,-0.0521
UCGGGAGCAAUAGCAUUGC,SSR4P1,-0.0955
UUGAGUAGCACACUCGACU,PMAIP1,0.4812
UUCGGGCUCAAAAUCCUUC,LETM1,0.05402
UCUGAGAACAUGGCGGUCC,PI4KAP2,0.4018
UGCUUUACGAAGUUGCUCC,TAX1BP1,0.6598
UUACUGAUGGGUACAGAAG,SARS,-0.5125
AGAGGUACGAGUUCUUCUC,LOC155060,-1.023
UUUAUCACCUUUGAGUUGC,CCNK,-0.207
UUGAUUGCUAAGUUGAACC,ATG13,0.5135
AGUCUGAGAAACUUCAUCC,CHMP7,-0.181
UUCCUUAGUAUUCACAUAG,C14orf37,0.2643
UUUCACAUAAUAUGUCAGC,BPY2,-0.1417
UCUUUGGCUAGAUGAAGCA,HNRNPA1P35,0.9401
UAAGUCUACCUGAGAGAUG,SND1-IT1,0.1967
UCCACCUUCAGUUUUAUGC,PTPRN,0.7606
UCUUUUACCUUCGCUUUUG,MRPS9,0.1019
UGAUUCUUCACGAAUUUGC,LRRC75A-AS1,0.1426
UAUUCGAUCCUUUUGUUCC,CLSTN3,0.2702
UUCUGGUACAGUAGCAUAG,CSRP2BP,-0.1303
UUCUCUACUCUUCUCAUUC,RPL18P4,-0.1767
UGCUCACCCAGCUUGUAGG,MFSD3,0.6262
UUCUGGAUGUGCAUCCUGG,MXD3,0.3852
UUCGUGCUUAGAUAAUAGC,ADAMTS20,-0.9611
AUCUGACACUCAUCUAGCC,ST6GALNAC4,-0.6884
UCCAGUAUUCUCAAUAACC,DDR2,-0.2047
UGUCUGCAACCAAUUGUCC,EPHB6,-0.3042
AAUCCUUAAAGACCGACUG,PYGB,-1.358
UCAUCGUCAUGUUUCCUUC,ZXDC,-0.6106
UAAGGCACGAAGCUAACCU,C1orf233,2.066
UCUUGAGACAUCGUUCUCC,ARHGAP25,0.3165
UUUUAUAGCUGCACAAACU,SORD2P,1.593
UACGUUUGUAGGCAUUGCG,XKRX,-0.0137
UGUGCAUGUAGUGAUGCUG,NOL12,-0.8703
UAUUCUAGAAAAGUGAGGG,HKDC1,-0.3411
UUCCAUAAGUAUUAGAUGC,MS4A4A,0.05486
UUUGUUCCCGGGUUGGUGU,GSK3A,-0.1644
AGACCUCAAACAUUCGUCC,B3GNTL1,0.2368
AACGUGACCAUCCUAUUUC,XKR5,-0.1593

Some entries from above, unchanged:

Sequence	target gene	seed-corrected z-score
UUUCACAUAAUAUGUCAGC	BPY2	-0.1417
UUUAUCACCUUUGAGUUGC	CCNK	-0.207
UUAAAGCAAAGGAUAUCUG	VN1R5	-0.8081
UAAGUCUACCUGAGAGAUG	SND1-IT1	0.1967